Taken from: PubChem BioAssay AID504804 (Drosophila RNAi Screening Center, 2011)
The screen tested about 19,000 reagents; below is an unselected part of those with a known target gene and a result. In the full data, 47 (0.25%) are marked active. 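Signals are raw, not normalised; exact z-scores behind calls not deposited; actives needed confirmation, so some wells reaching 2 SD are inactive.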 Entries without a mark were called inactive. A plus sign joins genes that one reagent is predicted to hit.

Screen: 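Knock-downs shielding fly cells from apoptosis caused by DNA damage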 (primary screen)
Cell system: Drosophila Kc cells
Knock-down reagent: long dsRNA against Drosophila genes, 0.5 µg dsRNA per well
Duration: 96 h (48 h knock-down, then 48 h drug)
Conditions: doxorubicin 5 µg/ml for 48 h, added 48 h after dsRNA
Measurement: 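Viability measured as cellular ATP by luminescence after 48 h knock-down then 48 h doxorubicin at 5 µg/ml; unnormalised plate counts for each replicate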
Direction: raw ATP luminescence: higher = more viable cells, protection from doxorubicin
Hit rule: 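z-score of 2 or more over plate mean in both duplicates, retained only when retests and separate dsRNAs confirm the protection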

gene	amplicon	raw ATP luminescence, replicate 1	raw ATP luminescence, replicate 2
udd (under-developed)	DRSC06720	43350	87477
Datp (Diadenosine tetraphosphatase)	DRSC01102	2.53e5	3.06e5
BORCS7 + CG13430	DRSC06392	70953	69503
Slc25A46b	DRSC02888	57563	77477
CG8841	DRSC07286	76990	60767
axed (axundead)	DRSC08833	1.88e5	1.78e5
axed (axundead)	DRSC10982	82147	79047
eIF4E1 (eukaryotic translation initiation factor 4E1)	DRSC11342	31047	30150
bcn92	DRSC18741	68860	23990
CG31949	DRSC00110	2.96e5	3.26e5
Vps28 (Vacuolar protein sorting 28)	DRSC06168	62017	44737
CG9522	DRSC20197	3.53e5	3.46e5
CG17738	DRSC15257	57433	51683
Bub1 (Bub1 kinase)	DRSC02357	44370	19063
CG32219	DRSC09641	56417	75083
Rab39	DRSC17827	40320	43910
CG9641	DRSC00721	1.24e5	70533
CG12877	DRSC14565	47720	45830
Tsp42Ed (Tetraspanin 42Ed)	DRSC05940	39960	83513
Neu2 (Neuroectoderm-expressed 2)	DRSC11819	62647	62850
CG17646	DRSC00507	1.42e5	82600
CG31462 (retired record)	DRSC14359	64550	68407
CG7142	DRSC16204	70580	86610
CG15253	DRSC01871	54903	79657
loj (logjam)	DRSC09791	47913	52637
cbc (crowded by cid)	DRSC06957	81167	63627
dpr17 (defective proboscis extension response 17)	DRSC12885	2.35e5	2.04e5
dpr17 (defective proboscis extension response 17)	DRSC14957	24767	25860
dpr17 (defective proboscis extension response 17)	DRSC14958	48460	50790
CG11406	DRSC04010	89567	1.09e5
CG11406	DRSC04108	42733	49287
Nfs1 (Nfs1 cysteine desulfurase)	DRSC02154	89673	64840
CG8925	DRSC16455	92220	70480
CG8925	DRSC16456	63680	71960
CG8925	DRSC16457	82770	80020
